Binding data for one molecule are collected here from PMC12612596, “Real‐time FRET assay for monitoring detyrosination by TMCP1 and VASH2” (Protein Science : A Publication of the Protein Society, 2025).

Amino acid sequences for entries named in this document (tags omitted).
UniProt Q7L8A9: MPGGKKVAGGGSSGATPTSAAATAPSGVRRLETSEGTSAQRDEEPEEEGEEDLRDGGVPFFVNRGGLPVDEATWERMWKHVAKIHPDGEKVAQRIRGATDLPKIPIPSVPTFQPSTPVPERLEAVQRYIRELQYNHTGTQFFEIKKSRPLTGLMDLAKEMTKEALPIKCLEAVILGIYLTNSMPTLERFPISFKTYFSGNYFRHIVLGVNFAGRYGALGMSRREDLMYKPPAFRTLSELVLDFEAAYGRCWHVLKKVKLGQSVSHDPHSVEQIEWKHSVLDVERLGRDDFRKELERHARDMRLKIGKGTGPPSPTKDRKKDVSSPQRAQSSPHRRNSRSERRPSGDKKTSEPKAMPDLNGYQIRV
UniProt Q86V25: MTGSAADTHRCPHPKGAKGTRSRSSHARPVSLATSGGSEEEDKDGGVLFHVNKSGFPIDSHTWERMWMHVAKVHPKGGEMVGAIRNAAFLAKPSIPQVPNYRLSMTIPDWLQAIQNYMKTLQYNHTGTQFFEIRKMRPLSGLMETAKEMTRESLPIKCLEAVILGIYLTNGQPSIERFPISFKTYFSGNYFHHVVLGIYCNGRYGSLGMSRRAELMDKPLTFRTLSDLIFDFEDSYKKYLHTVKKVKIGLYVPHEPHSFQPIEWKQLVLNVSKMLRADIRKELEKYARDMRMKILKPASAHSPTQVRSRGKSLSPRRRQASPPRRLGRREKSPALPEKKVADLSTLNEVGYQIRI

Experiment [1] concerns the target Vasohibin 1 (VASH1), His- and T7-tagged (UniProt Q7L8A9). Description: co-expression and co-purification (Ni-NTA); His-/T7-tagged VASH1 or VASH2 co-expressed with T7-tagged SVBP from a bicistronic vector in E. coli; His-tagged protein captured on Ni-NTA agarose in 50 mM Tris pH 8, 300 mM NaCl, 0.05% tween, eluted with 250 mM imidazole.
The target of experiment [2] is Vasohibin 2 (VASH2), His- and T7-tagged (UniProt Q86V25). Described as above.

No constants are given. Whether binding was seen depends on the method and setting. Some entries that bind do so weakly or less than the wild type. Tags and fused reporters may be left off the sequences shown.

B1: Small Vasohibin Binding Protein (SVBP), T7-tagged (protein, UniProt Q8N300 1-66)
chain: MDPPARKEKTKVKESVSRVEKAKQKSAQQELKQRQRAEIYALNRVMTELEQQQFDEFCKQMQPPGE
As for B1, the binding result in experiment [1] and in experiment [2] was “binds” throughout.
